We go through 23 sequences from PMC7819943, “Rice protein-binding microarrays: a tool to detect cis-acting elements near promoter regions in rice”.

Chains of the proteins cited; added tags and fusions are not shown.
UniProt Q0JBA9, entry or part of it: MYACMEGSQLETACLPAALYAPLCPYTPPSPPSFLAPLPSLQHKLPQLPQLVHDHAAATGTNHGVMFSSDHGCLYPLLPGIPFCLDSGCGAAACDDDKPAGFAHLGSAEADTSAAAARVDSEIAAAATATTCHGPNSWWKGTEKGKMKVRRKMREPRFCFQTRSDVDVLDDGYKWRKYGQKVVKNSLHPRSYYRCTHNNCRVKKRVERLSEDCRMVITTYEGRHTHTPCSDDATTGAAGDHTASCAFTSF

The list shows a part of the results.

This test addresses OsWRKY34 (Oryza sativa, UniProt Q0JBA9 1-250). The test is described as follows: protein-binding microarray (RPBM); PBS, 2% BSA, 51.3 ng/ul salmon testes DNA, 50 uM zinc acetate, 200 nM TF, 25 C, 1 h; high values mean tight binding. Particulars: protein: recombinant; tags: N-terminal polyhistidine and DsRed monomer fusion (pET32a); label: CyDye5-dUTP incorporated in the synthesized complementary strand; 3' TTTTT single-stranded linker to array surface; dsDNA, one strand shown. In a few lines:
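Binding signal here means per-feature fluorescence intensity in arbitrary units. The values were read on an Axon 4000B scanner after a custom Agilent array, double-stranded by primer extension with Cy5-dUTP, was incubated with 200 nM protein at 25 °C for 1 h in PBS with 2% BSA, salmon testes DNA and 50 µM zinc acetate, then washed. The proteins were transcription factors with an N-terminal polyhistidine tag and DsRed, expressed in E. coli BL21-CodonPlus and purified on Ni–NTA.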
For the sequence “AGCCAATCCGTTTCTCTTTCTGTTCAGGCTGTTTGACTCACGGAGTCACCTAGTGCAG”, the binding signal was 11000 fluorescence intensity (a.u.).

On to “TTCCCATTCCAGCTCCGTCTTTCTTTCTTCTCCTCCTGGACGGAGTCACCTAGTGCAG”, for which the binding signal was 10400 fluorescence intensity (a.u.).

With “TGCCCAACTCGCGCTTTCGATTTCCGTTTTCGATTCCGTTCGGAGTCACCTAGTGCAG”, the binding signal was 11000 fluorescence intensity (a.u.).

As to “GCCCGGTTGATCTGCTCCCATTTCTAGCATTTTCCATTTCCGGAGTCACCTAGTGCAG”, the binding signal was 13900 fluorescence intensity (a.u.).

As to “CATTCGGTTTGCTCTTCGATTCCTAACTTAACTGATTTTTCGGAGTCACCTAGTGCAG”, the binding signal is 9480 fluorescence intensity (a.u.).

For the sequence “AGGAGATGCGGTAGTTTTTTTGGTACTGCGTGCGGTGGGGCGGAGTCACCTAGTGCAG”, the binding signal is 8400 fluorescence intensity (a.u.).

Regarding “CACCAACACCCAACCACCCGCTGCTAAGCTAGCTCCCAATCGGAGTCACCTAGTGCAG”, the binding signal was 9540 fluorescence intensity (a.u.). On to “CCCCAAAATACTCGACGCTGAACTTTCCCATCAGCTAGTACGGAGTCACCTAGTGCAG”, for which the binding signal is 8280 fluorescence intensity (a.u.). Take “AATTTGATTCTTTTAGCCATGCCACTACACGCGGTAGACTCGGAGTCACCTAGTGCAG”: the binding signal is 8510 fluorescence intensity (a.u.). On to “TTAATACATGTCTATTTTTCTATATGCATGTACACATTTTCGGAGTCACCTAGTGCAG”, for which the binding signal was 9060 fluorescence intensity (a.u.). Consider “GACGTCCTCTCTTCCGCCGGTATCACCACTTCACCACTCTCGGAGTCACCTAGTGCAG”, for which the binding signal was 8610 fluorescence intensity (a.u.). As to “CATCGCTCTGACGGTATCTTGGTCGACACATCGATTGCATCGGAGTCACCTAGTGCAG”, the binding signal was 8250 fluorescence intensity (a.u.).

As to “TCGAAACCTCGCTCCACTTCAATTTAATTCATCATTCTAACGGAGTCACCTAGTGCAG”, the binding signal is 10600 fluorescence intensity (a.u.). For “AGTAGTATTATTTTGTTCCAACTTTTTATTTAGGTTTTGTCGGAGTCACCTAGTGCAG”, the binding signal is 9790 fluorescence intensity (a.u.).

Consider “ACTTCGAGTGTGTTTGTCGTCTCGCCTCTGCTGCTTCCTTCGGAGTCACCTAGTGCAG”, for which the binding signal is 10200 fluorescence intensity (a.u.). For “ATCCAGTCTCTCTATTAGCTTGTATCCCTATTCTTATTCTCGGAGTCACCTAGTGCAG”, the binding signal is 10100 fluorescence intensity (a.u.).

As to “ATTCTTCAAGCAGGCTTGCTTGCAGTCATCTCTATTTTTTCGGAGTCACCTAGTGCAG”, the binding signal is 8420 fluorescence intensity (a.u.).

Turning to “CACACCTCCACCAACTAGCTGCCACGCTCGCTTTCCCCTGCGGAGTCACCTAGTGCAG”, the binding signal was 9450 fluorescence intensity (a.u.). With “GCAGCGCTCGTCTCTCTCTGTCTCTCCACTCTCTTCTCTCCGGAGTCACCTAGTGCAG”, the binding signal is 10100 fluorescence intensity (a.u.). In the case of “TACTGCCTAAACCAGGCCTAATTGCCATGCCTCCAAACTACGGAGTCACCTAGTGCAG”, the binding signal was 8530 fluorescence intensity (a.u.).

As for “GTTGCAATGTTGATCTGGTTTACTTCCCAACTTTTTCTTCCGGAGTCACCTAGTGCAG”, the binding signal is 10500 fluorescence intensity (a.u.). On to “TTATGGATGTCAGCCGGCCCAACAAACCTTTGACCAACCTCGGAGTCACCTAGTGCAG”, for which the binding signal was 9420 fluorescence intensity (a.u.).

For “CCCGCCGTTACCATCCTCGCCGCCGCCTTCCATCCCCGCCCGGAGTCACCTAGTGCAG”, the binding signal was 10700 fluorescence intensity (a.u.).
